Publication PMC9194504, “Chondroitin Sulfates Control Invasiveness of the Basal-Like Breast Cancer Cell Line MDA-MB-231 Through ROR1” (Frontiers in Oncology, 2022)
Results are given in words; binding and its absence hold for the method and conditions named. Some entries that bind do so weakly or less than the wild type.

Amino acid sequences for entries named in this document (tags omitted). A change or cut given only in a name is not applied to a line headed by its entry. Residues count along the entry.
UniProt Q01973, residues 30-406: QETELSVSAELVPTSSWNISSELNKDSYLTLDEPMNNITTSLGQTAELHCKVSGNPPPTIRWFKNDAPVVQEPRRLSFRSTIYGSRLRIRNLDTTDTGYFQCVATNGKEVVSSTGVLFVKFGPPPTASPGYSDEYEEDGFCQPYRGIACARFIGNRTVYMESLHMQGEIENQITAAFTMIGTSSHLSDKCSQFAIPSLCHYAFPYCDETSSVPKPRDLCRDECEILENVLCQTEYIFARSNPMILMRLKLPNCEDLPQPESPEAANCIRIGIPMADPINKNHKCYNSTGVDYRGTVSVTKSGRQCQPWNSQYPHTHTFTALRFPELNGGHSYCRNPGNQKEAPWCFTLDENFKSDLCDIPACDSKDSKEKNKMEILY

How the values were obtained:
[1] = target: T1, Recombinant human ROR1-Fc chimera (human, UniProt Q01973 30-406); test: condition: only with CS-A (premixed at a 1:7 molar ratio); SPR; Biacore X100; ROR1-Fc immobilised on a CM5 chip; protein analyte premixed or pre-treated with CS-A (DKK1:CS-A 1:7 molar ratio); both purified
T1 construct: receptor tyrosine kinase-like orphan receptor 1 (ROR1), human; recombinant ROR1-Fc chimera, R&D Systems Cat. No. 9490-RO; also called receptor tyrosine kinase-like orphan receptor 1; recombinant ROR1; source: bought: R&D Systems (Cat. No. 9490-RO)

[2] = target: T1, Recombinant human ROR1-Fc chimera; test: SPR; Biacore X100; ROR1-Fc amine-coupled on a CM5 chip (~3,200 RU); protein analyte alone (no CS), 30 μl/min, 120 s, dissociation 130 s, 25°C; 50 mM Tris-HCl pH 7.5; both purified

B1: recombinant human DKK1 (ligand, UniProt O94907 32-266, looked up)
chain: TLNSVLNSNAIKNLPPPLGGAAGHPGSAVSAAPGILYPGGNKYQTIDNYQPYPCAEDEECGTDEYCASPTRGGDAGVQICLACRKRRKRCMRHAMCCPGNYCKNGICVSSDQNHFRGEIEETITESFGNDHSTLDGYSRRTTLSSKMYHTKGQEGSVCLRSSDCASGLCCARHFWSKICKPVLKEGQVCTKHRRKGSHGLEIFQRCYCGEGLSCRIQKDHHQASNSSRLHTCQRH
notes: Dickkopf-1 (DKK1), human, recombinant, R&D Systems Cat. No. 5439-DK/CF; also called Dickkopf-1; source: bought: R&D Systems (Cat. No. 5439-DK/CF)
With B1 the binding [1] was “no binding” and the binding [2] was “binds weakly”.
